These are yes or no findings as the source states them, for the method shown. Binding seen in cells or lysates may run through a third protein. These calls come from enrichment with a bait or labelling near it, and not all partners need be listed.
B1: ANKRD52 (protein, UniProt Q8BTI7 1-1076)
chain: MGILSITDQPPLVQAIFSRDVEEVRSLLSQKENINVLDQERRTPLHAAAYVGDVPILQLLLMSGANVNAKDTLWLTPLHRAAASRNEKVLGLLLAHSADVNARDKLWQTPLHVAAANRATKCAEALAPLLSSLNVADRSGRSALHHAVHSGHLETVNLLLNKGASLNVCDKKERQPLHWAAFLGHLEVLKLLVARGADLSCKDRKGYGLLHTAAASGQIEVVKHLLRMGAEIDEPNAFGNTALHIACYLGQDAVAIELVNAGANVNQPNDKGFTPLHVAAVSTNGALCLELLVNNGADVNYQSKEGKSPLHMAAIHGRFTRSQILIQNGSEIDCADKFGNTPLHVAARYGHELLISTLMTNGADTARRGIHDMFPLHLAVLFGFSDCCRKLLSSGQLYSIVSSLSNEHVLSAGFDINTPDSLGRTCLHAAASGGNVECLNLLLSSGADLRRRDKFGRTPLHYAAANGSYQCAVTLVTAGAGVNEADCKGCSPLHYAAASDTYRRAEPHTASSHDAEEDELLKESRRKEAFFCLEFLLDNGADPSLRDRQGYTAVHYAAAYGNRQNLELLLEMSFNCLEDVESTVPVSPLHLAAYNGHCEALKTLAETLVNLDVRDHKGRTALFLATERGSTECVEVLTAHGASALIKERKRKWTPLHAAAASGHTDSLHLLIDSGERADITDVMDAYGQTPLMLAIMNGHVDCVHLLLEKGSTADAADLRGRTALHRGAVTGCEDCLAALLDHDAFVLCRDFKGRTPIHLASACGHTAVLRTLLQAALSTDPLDAGVDYSGYSPMHWASYTGHEDCLELLLEHSPFSYLEGNPFTPLHCAVINNQDSTTEMLLGALGAKIVNSRDAKGRTPLHAAAFADNVSGLRMLLQHQAEVNATDHTGRTALMTAAESGQTAAVEFLLYRGKADLTVLDENKNTALHLACSKGHEKCALMILAETQDLGLINATNSALQMPLHIAARNGLASVVQALLSRGATVLAVDEEGHTPALACAPNKDVADCLALILSTMKPFPPKDAVSPFSFSLLKNCGIAAAKTVGGCGALPHGASCPYSQERHGAIGLDGCYSE
B2: PP6C (protein, UniProt Q9CQR6 1-305)
chain: MAPLDLDKYVEIARQCKYLPENDLKRLCDYVCDLLLEESNVQPVSTPVTVCGDIHGQFYDLCELFRTGGQVPDTNYIFMGDFVDRGYYSLETFTYLLALKAKWPDRITLLRGNHESRQITQVYGFYDECQTKYGNANAWRYCTKVFDMLTVAALIDEQILCVHGGLSPDIKTLDQIRTIERNQEIPHKGAFCDLVWSDPEDVDTWAISPRGAGWLFGAKVTNEFVHINNLKLICRAHQLVHEGYKFMFDEKLVTVWSAPNYCYRCGNIASIMVFKDVNTREPKLFRAVPDSERVIPPRTTTPYFL
B3: PP6R3 (protein, UniProt Q922D4 1-844)
chain: MFWKFDLHSSSHIDTLLEREDVTLKELMDEEDVLQECKAQNRKLIEFLLKAECLEDLVSFIIEEPPQDMDEKIRYKYPNISCELLTSDVSQMNDRLGEDESLLMKLYSFLLNESPLNPLLASFFSKVLSILISRKPEQIVDFLKKKRDFVDLIIKHIGTSAIMDLLLRLLTCIEPPQPRQDVLNWLNEERIIQRLVEIVHPSQEEDRHSNASQSLCEIVRLSRDQMLQVQNSTEPDPLLATLEKQEIIEQLLSNIFHKEKNESAIVSAIQILLTLLETRRPTFEGHIEICPPGMSHSACSVNKSVLEAIRGRLGSFHELLLEPPKKSVMKTTWGILDPPVGNTRLNVIRLISSLLQTNTSSINGDLMELNSIGVILDMFFKYTWNNFLHTQVEICIALILASPFENAENGTITDQDSTGDNLLLKHLFQKCQLIERILEAWDTNEKKQAEGGRRHGYMGHLTRIANCIVHSTDKGPNSALVQQLIKDLPDEVRERWETFCTNSLGETNKRNTVDLAFSDYQMQQMTSNFIDQFGFNDEKFADQDDIGNVSFDRVSDINFTLNTNESGNIALFEACCKERIQQFDDGGSDEEDIWEEKHIAFTPESQRRSSSGSTDSEESTDSEEEDGAKQDLFESSSANTEDKMEVDLNEPPTWSANFDVPMETTHGAPLDSVGSDVWSTEEPMPTKETGWASFSEFTSSLSTKESLRSNSPVEMETSTESVDPLTPGAAALATQPEAPGSMAMEASSDGEEDAESTDKVTETVMNGGMKETLSLTVDAKTETAVFKSEEEKLSTSQDAACKDAEETPEPAEAKCTAPLTPSSSPEQRTDQPSMPSDPSVNGPV
B4: ANKRD28 (protein, UniProt Q505D1 1-1053)
chain: MAFLKLRDQPSLVQAIFNGDPDEVRALIFKKEDVNFQDNEKRTPLHAAAYLGDAEIIELLILSGARVNAKDSKWLTPLHRAVASCSEEAVQILLKHSADVNARDKNWQTPLHIAAANKAVKCAESLVPLLSNVNVSDRAGRTALHHAAFSGHGEMVKLLLSRGANINAFDKKDRRAIHWAAYMGHIEVVKLLVSHGAEVTCKDKKSYTPLHAAASSGMISVVKYLLDLGVDMNEPNAYGNTPLHVACYNGQDVVVNELIDCGANVNQKNEKGFTPLHFAAASTHGALCLELLVGNGADVNMKSKDGKTPLHMTALHGRFSRSQTIIQSGAVIDCEDKNGNTPLHIAARYGHELLINTLITSGADTAKRGIHGMFPLHLAALSGFSDCCRKLLSSGFDIDTPDDFGRTCLHAAAAGGNLECLNLLLNTGADFNKKDKFGRSPLHYAAANCNYQCLFALVGSGASVNDLDERGCTPLHYAATSDTDGKCLEYLLRNDANPGIRDKQGYNAVHYSAAYGHRLCLQLIASETPLDVLMETSGTDMLSDSDNRATISPLHLAAYHGHHQALEVLVQSLLDLDVRNSSGRTPLDLAAFKGHVECVDVLINQGASILVKDYVLKRTPIHAAATNGHSECLRLLIGNAEPQNAVDIQDGNGQTPLMLSVLNGHTDCVYSLLNKGANVDAKDKWGRTALHRGAVTGHEECVDALLQHGAKCLLRDSRGRTPIHLSAACGHIGVLGALLQSATSVDANPAVVDNHGYTALHWACYNGHETCVELLLEQDVFQKIDGNAFSPLHCAVINDNEGAAEMLIDSLGASIVNATDSKGRTPLHAAAFTDHVECLQLLLSQNAQVNSADSTGKTPLMMAAENGQTNTVEMLVSSASADLTLQDKSKNTALHLACGKGHETSALLILEKITDRNLINATNAALQTPLHVAARNGLTMVVQELLGKGASVLAVDENGYTPALACAPNKDVADCLALILATMMPVSSSSPLTSLTFNAINRYTNTSKTVSFEALPIMRNEASSYCSFNNIGGEQEYLYTDVDELNDSDSETY

target: m54.5p-V5 (C-terminally V5-tagged MCMV m54.5 ORF product) (murine cytomegalovirus (MCMV, Smith, pSM3fr)); assay: affinity purification with mass spectrometry

Row | Binder | binding
1 | B1 | binds
2 | B2 | binds
3 | B3 | binds
4 | B4 | binds

From article doi:10.1101/2025.08.04.668388
